This passage reports binding results from paper PMC5400275.

These are yes or no findings as the source states them, for the method shown. For some of these results: Binding seen in cells or lysates may run through a third protein. Some binding calls cover weakened binding; strength is not graded here. Where a sequence is shown, tags or fusion partners need not be part of it.

For test [1], the target named is T1, RAN1-N-FLAG (Arabidopsis thaliana) (UniProt Q9S7J8).
T1 sequence: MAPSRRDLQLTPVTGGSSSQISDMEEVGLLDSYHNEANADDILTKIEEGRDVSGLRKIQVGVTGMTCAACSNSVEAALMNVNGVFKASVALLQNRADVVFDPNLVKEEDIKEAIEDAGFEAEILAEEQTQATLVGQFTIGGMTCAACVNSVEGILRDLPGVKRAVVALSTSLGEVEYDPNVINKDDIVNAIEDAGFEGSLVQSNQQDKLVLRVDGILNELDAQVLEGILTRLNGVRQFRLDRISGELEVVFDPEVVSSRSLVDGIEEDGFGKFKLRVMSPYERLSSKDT
Briefly: co-IP; N. benthamiana leaves agroinfiltrated, 2 days; extract in 50 mM Tris-HCl pH 7.5, 150 mM NaCl, 5 mM MgCl2, 1 mM EDTA, 1% Triton X-100; anti-FLAG agarose beads 2 h at 4 C; blots with anti-FLAG and anti-GFP.

The target in test [2] is T2, ATX1 fused to a GAL4 DNA-binding domain (BD) (Arabidopsis thaliana) (UniProt Q94BT9).
T2 sequence: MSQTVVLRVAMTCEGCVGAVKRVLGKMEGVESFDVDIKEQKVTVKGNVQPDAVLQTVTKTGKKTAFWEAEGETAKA
Briefly: two-hybrid; yeast strain AH109; pGBKT7 (ATX1) and pGADT7 (RAN1 N terminal) co-transformed; SD (-Leu/-Trp/-His/-Ade) medium with X-alpha-Gal (50 mg/L), 3 days; growth and blue colour.

The target of test [3] is T3, ATX1-FLAG (Arabidopsis thaliana) (UniProt Q94BT9).
T3 sequence: T2 sequence
Briefly: co-IP; N. benthamiana leaves agroinfiltrated, 2 days; extract in 50 mM Tris-HCl pH 7.5, 150 mM NaCl, 5 mM MgCl2, 1 mM EDTA, 1% Triton X-100; anti-FLAG agarose beads 2 h at 4 C; blots with anti-FLAG and anti-GFP.

For test [4], the target named is T4, cLUC-ATX1 (Arabidopsis thaliana) (UniProt Q94BT9).
T4 sequence: T2 sequence
Briefly: split reporter; split-luciferase complementation in N. benthamiana leaves (agroinfiltration with P19), 2 days, 1 mM luciferin, CCD imaging; the paper calls it BiFC.

B1: ATX1-GFP (protein, UniProt Q94BT9 1-76)
chain: T2 sequence
As to B1, the binding result in test [1] was “binds”.

B2: RAN1-N (289 amino-terminal amino acids of RAN1) ligated to a GAL4 activation domain (AD) (domain or fragment, UniProt Q9S7J8 1-289)
chain: T1 sequence
B2: the binding result in test [2] is “binds”.

B3: RAN1-N-GFP (domain or fragment, UniProt Q9S7J8 1-289)
chain: T1 sequence
Regarding B3, in test [3], the binding entry is listed as “binds”.

B4: nLUC-RAN1-N (domain or fragment, UniProt Q9S7J8 1-289)
chain: T1 sequence
As to B4, in test [4], the binding result is reported as “binds”.
